Percent effect of library compounds

Each number is a percent effect as filed. How 0% and 100% were set is not recorded. Most values in the screen are low, and negative values occur. The compounds are a random part of those screened.

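Growth of Mycobacterium tuberculosis over 3 days (7H9 medium with glucose and tyloxapol); the read-out is not stated. Tested at 500 µM. The record gives no direction; compounds that gave an IC50 in retests scored well above the rest, so higher reads as more growth inhibition. Size under these conditions: about 18,000 compounds, about 1,400 of them at 50% or above in at least one test.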

* CCN(CC)Cc1ccccc1NCC(=O)N(C)C | 15.86%
* CN(Cc1ccco1)C(=O)c1cccc(C#N)c1 | 49.76%
* Cc1cc(C(=O)N[C@@H]2CC[C@@H](N)C2)ccc1O | -1.245%
* Cc1cc(Br)oc1C(=O)Nc1ncccc1O | 72.96%
* CN1CCC(NCc2ccc3c(c2)OCO3)CC1 | 10.34%
* NCCSCc1ccccc1F | 81.04%
* CC(=O)c1csc(C(=O)NCCN(C)C)c1 | -6.423%
* O=C(CNC1(CO)CCOCC1)Nc1cccc(F)c1 | 12.36%
* CN(C)C(CNC(=O)c1ccccn1)c1ccsc1 (centres unmarked) | 18.32%
* CS(=O)(=O)CCS(N)(=O)=O | 3.909%
* O=C(N1CCCC(O)C1)C1(O)Cc2ccccc2C1 (centres unmarked) | 4.077%
* CN(C)Cc1ccccc1CNC(=O)[C@@H]1CCCN1 | 18.47%
* c1cc(CC2CCNC2)ccn1 (centres unmarked) | -3.364%
* NCCNS(=O)(=O)c1ccccc1 | 6.508%
* CCN(CC)CCCC1CCN(S(N)(=O)=O)CC1 | 4.563%
* COc1cccc(CO)c1C | 8.781%
* CCc1nn(C)c(CC)c1S(=O)(=O)N1CCCNCC1 | 11.18%
* COc1ccc(CC#N)cc1S(C)(=O)=O | -0.02476%
* Cc1cc(C2CC2)nc(N)n1 | -11.44%
* CN(C)CCNCCOCCO | -15.18%
* CC(=O)c1ccc(C(F)F)nc1 | 21.25%
* CCN(CC)c1ccc(NC(=O)N(C)C)cn1 | 4.538%
* O=C(C(O)c1cc(Cl)cc(Cl)c1)N1CC[S+]([O-])CC1 (centres unmarked) | 19.73%
* NCCn1cc(Br)ccc1=O | 6.916%
* CCC(SC)C(=O)NCc1nnc(C)n1C1CC1 (centres unmarked) | -2.55%
* CC(C)NCC(=O)NC(N)=O | -7.934%
* Cc1ccc(NC(=O)C2CCCN2)nc1 (centres unmarked) | 26.02%
* Cc1c(C(=O)NCc2ccc(Cl)s2)cnn1C | 45.67%
* COc1ccc(-c2nc(CS(C)(=O)=O)cs2)cc1 | 0.7782%
* Cn1nc2n(c1=O)CCN(Cc1ccc(Br)o1)CC2 | 0.3077%
* COCC1(NC(=O)CCc2ccncc2)CCCC1 | 18.87%
* CCN(CC(C)C#N)S(=O)(=O)c1ncn(C)c1Cl (centres unmarked) | 2.144%
* CNCc1cc2ccccc2nc1O | 15.36%
* CC(NC(=O)NCCn1ccnc1)c1ccccn1 (centres unmarked) | 8.746%
* Cc1noc(C)c1C(=O)N(C)C1CCS(=O)(=O)C1 (centres unmarked) | 5.27%
* NCC(CO)c1ccc(F)cc1 (centres unmarked) | 25.36%
* CC(C)n1ncc(C(=O)N=c2cc[nH]n2C(C)C)c1N | 6.015%
* Cc1nnc2n1CC(NC(=O)COCC(F)(F)F)CC2 (centres unmarked) | 5.64%
* Cn1c(CN)nc2cc(Cl)ccc21 | 41.24%
* CCC(C)Oc1cc(C(=O)NCC2(O)CCC2)ccn1 (centres unmarked) | 49.68%
* CC(C)n1cnnc1CN1CCN(c2nc[nH]n2)CC1 | -9.033%
* CN1CCN(CCCN(C)Cc2ccncc2)CC1 | -9.66%

For reference, 4 entries once more:

Result for CC(C)n1cnnc1CN1CCN(c2nc[nH]n2)CC1 was -9.033%.
Result for COCC1(NC(=O)CCc2ccncc2)CCCC1 was 18.87%.
Result for CCN(CC(C)C#N)S(=O)(=O)c1ncn(C)c1Cl (centres unmarked) was 2.144%.
Result for COc1cccc(CO)c1C was 8.781%.

Source: ChEMBL document CHEMBL3988442, “University of Dundee, Small-Polar-MMV Screening Library” (2021).